For the assay, the system named is L1210 leukemia ip in BDF1 mice, survival T/C. Put plainly: NCI In Vivo Anticancer Drug Screen. Data for tumor model L1210 Leukemia (intraperitoneal) in B6D2F1 (BDF1) mice. Particulars: T/C endpoint: mean survival time, higher T/C = longer survival.
The mark [1] stands for this setting: dose: 200.0 mg/kg/injection, schedule: Q01DX001 (ip), vehicle: carboxymethylcellulose (CMC).
The mark [2] stands for this setting: dose: 400.0 mg/kg/injection, schedule: Q01DX001 (ip), vehicle: carboxymethylcellulose (CMC).
Setting [3] is: dose: 100.0 mg/kg/injection, schedule: Q01DX Z (ip), vehicle: carboxymethylcellulose (CMC).
The mark [4] stands for this setting: dose: 200.0 mg/kg/injection, schedule: Q01DX Z (ip), vehicle: carboxymethylcellulose (CMC).
The mark [5] stands for this setting: dose: 100.0 mg/kg/injection, schedule: Q04DX003 (ip), vehicle: Klucel (hydroxypropylcellulose) (HPC).
The mark [6] stands for this setting: dose: 200.0 mg/kg/injection, schedule: Q04DX003 (ip), vehicle: Klucel (hydroxypropylcellulose) (HPC).
[7] abbreviates: dose: 400.0 mg/kg/injection, schedule: Q04DX003 (ip), vehicle: Klucel (hydroxypropylcellulose) (HPC).
Where [8] appears, read: dose: 100.0 mg/kg/injection, schedule: Q01DX001 (ip), vehicle: saline.
The mark [9] stands for this setting: dose: 200.0 mg/kg/injection, schedule: Q01DX001 (ip), vehicle: saline.
The mark [10] stands for this setting: dose: 400.0 mg/kg/injection, schedule: Q01DX001 (ip), vehicle: saline.
The mark [11] stands for this setting: dose: 200.0 mg/kg/injection, schedule: Q01DX009 (ip), vehicle: Klucel (hydroxypropylcellulose) (HPC).
[12] abbreviates: dose: 400.0 mg/kg/injection, schedule: Q01DX009 (ip), vehicle: Klucel (hydroxypropylcellulose) (HPC).
The mark [13] stands for this setting: dose: 50.0 mg/kg/injection, schedule: Q04DX003 (ip), vehicle: Klucel (hydroxypropylcellulose) (HPC).

The list does not hold the whole screen: it is rich in T/C values a quarter to a half above the control, in often repeated tests (any T/C) and in doses without a T/C. Further doses and runs are listed elsewhere. T/C gives the treated animals as a percentage of the vehicle group. Some entries give survivors of the animals treated and no T/C: the source holds a T/C of zero for them, seemingly a mark for toxic or unscored doses. Some doses without a T/C left all or most animals alive at the check, yet need not have been tolerated: survival well below the control is almost never listed, so the zero probably covers shortened survival too. Counts of survivors are from the toxicity check (mostly the fifth day) where no day follows; animals may have died later. Schedules are NCI's codes, taken here to give the interval after Q, in days (D) or hours (H), and the number of doses after X. Some schedules carry Z or #; the key to these is not given. Where survival is the endpoint, the PubChem record calls one and a half times the control and up active, and a quarter to a half above the control has no call in these data; cut-offs in other NCI protocols can differ.

For `CN(C)Cc1ccc(C(C)(C)C)cc1`, the survivor count was 0 of 6 (dose: 200.0 mg/kg/injection, schedule: Q01DX009 (ip), vehicle: water) and 0 of 6 (dose: 400.0 mg/kg/injection, schedule: Q01DX009 (ip), vehicle: water).

With `OC1(CCC2OCCO2)c2ccccc2-c2ccccc21`, the survivor count (dose: 400.0 mg/kg/injection, schedule: Q04DX002 (ip), vehicle: saline with Tween-80) is on record as 3 of 3.

Turning to `CCCSc1nccc2n[nH]nc12`, the survivor count (dose: 400.0 mg/kg/injection, schedule: Q01DX001 (ip), vehicle: saline with Tween-80) is 1 of 6.

Consider `CCc1cc2c([nH]c3ccccc32)c(C)c1CCN(C)C`, for which the survivor count (dose: 400.0 mg/kg/injection, schedule: Q01DX001 (ip), vehicle: other) is on record as 0 of 4.

As for `CC(=O)Nc1nc(C)c(CCCN(c2ccccc2)S(=O)(=O)c2ccc(N)cc2)c(=O)[nH]1`, the survivor count is, setting by setting: (dose: 100.0 mg/kg/injection, schedule: Q01DX001 (ip), vehicle: Klucel (hydroxypropylcellulose) (HPC)) 6 of 6; (dose: 400.0 mg/kg/injection, schedule: Q01DX001 (ip), vehicle: Klucel (hydroxypropylcellulose) (HPC)) 6 of 6.

`CN1CC(CO)C=C2c3cccc4[nH]cc(c34)CC21` (centres undefined): the survivor count (dose: 400.0 mg/kg/injection, schedule: Q01DX009 (ip), vehicle: alcohol) is given as 0 of 6.

Turning to `Cc1cc(OC(C)C(=O)O)c(Cl)cc1Cl` (centres undefined), the survivor count is, setting by setting: under setting [1], 3 of 6; under setting [2], 3 of 6.

Regarding `N#[N+]c1c(C(=O)O)[nH]c(=O)[nH]c1=O`, the T/C runs as follows: (dose: 12.5 mg/kg/injection, schedule: Q01DX Z (ip), vehicle: carboxymethylcellulose (CMC)) 132 % of control; (dose: 25.0 mg/kg/injection, schedule: Q01DX009 (ip), vehicle: saline with Tween-80) 141 % of control; (dose: 25.0 mg/kg/injection, schedule: Q01DX Z (ip), vehicle: carboxymethylcellulose (CMC)) 135 % of control; (dose: 25.0 mg/kg/injection, schedule: Q01DX Z (ip), vehicle: methylcellulose (MC)) 127 % of control; (dose: 50.0 mg/kg/injection, schedule: Q01DX Z (ip), vehicle: methylcellulose (MC)) 140 % of control. For the same molecule, the survivor count runs as follows: under setting [3], 0 of 6; (dose: 100.0 mg/kg/injection, schedule: Q01DX Z (ip), vehicle: methylcellulose (MC)) 1 of 6; under setting [4], 0 of 6; (dose: 200.0 mg/kg/injection, schedule: Q01DX Z (ip), vehicle: methylcellulose (MC)) 0 of 6; (dose: 600.0 mg/kg/injection, schedule: Q01DX009 (ip), vehicle: saline) 4 of 6.

With `C=C=[CH][Sn]([c]1ccccc1)([c]1ccccc1)[c]1ccccc1`, the survivor count by setting is: under setting [5], 3 of 6; under setting [6], 0 of 6; under setting [7], 0 of 6.

Turning to `CC[N+]1(CC)CCC(OC(=O)C(O)(c2ccccc2)c2ccccc2)C1` (centres undefined), the survivor count was 2 of 4 under setting [8], 0 of 4 under setting [9] and 0 of 4 under setting [10].

`COc1c(O)cc2oc3cc(O)c(CC=C(C)C)c(O)c3c(=O)c2c1CC=C(C)C`: the survivor count is, setting by setting: under setting [11], 6 of 6; under setting [12], 6 of 6.

As for `CCOc1ccc(/C=N\NC(=O)CCCC(=O)N/N=C/c2ccc(OCC)c(OCC)c2)cc1OCC`, the survivor count under setting [10] is 4 of 4.

`CC1(C)N=C(N)N=C(N)N1c1cccc(OCc2cccc(N)c2)c1`: the survivor count under setting [8] was 1 of 4, the survivor count under setting [9] was 0 of 4 and the survivor count under setting [10] is given as 0 of 4.

Regarding `S=C=NCc1ccc(Cl)c(Cl)c1`, the survivor count is recorded as 0 of 6 (dose: 100.0 mg/kg/injection, schedule: Q01DX009 (ip), vehicle: saline with Tween-80); 0 of 6 (dose: 200.0 mg/kg/injection, schedule: Q01DX009 (ip), vehicle: saline with Tween-80); 0 of 6 (dose: 400.0 mg/kg/injection, schedule: Q01DX009 (ip), vehicle: saline with Tween-80).

`NNC(=O)Cc1ccccc1`: the survivor count (dose: 400.0 mg/kg/injection, schedule: Q04DX003 (ip), vehicle: saline) was 0 of 6.

Consider `COC(=O)CCC(=O)Nc1ccc(C(=O)CBr)cc1`, for which the survivor count reads like this: under setting [13], 3 of 6; under setting [5], 3 of 6; under setting [6], 0 of 6; under setting [7], 0 of 6.

For `CC(C)CN(C)N=Nc1ccc(C(=N)N)cc1`, the survivor count is reported as 1 of 6 under setting [1] and 0 of 6 under setting [2].

As to `CC1(C[N+](=O)[O-])CCCC(=O)C1` (centres undefined), the survivor count is, setting by setting: (dose: 150.0 mg/kg/injection, schedule: Q01DX001 (ip), vehicle: saline) 0 of 6; (dose: 300.0 mg/kg/injection, schedule: Q01DX001 (ip), vehicle: saline) 0 of 6.

On to `COc1cc(OC)c(/C=C/c2ccc3ccccc3[n+]2C)c(OC)c1`, for which the survivor count (dose: 5.0 mg/kg/injection, schedule: Q04DX003 (ip), vehicle: saline with Tween-80) was 0 of 6; the survivor count (dose: 10.0 mg/kg/injection, schedule: Q04DX003 (ip), vehicle: saline with Tween-80) was 1 of 6; the survivor count (dose: 20.0 mg/kg/injection, schedule: Q04DX003 (ip), vehicle: saline with Tween-80) is given as 1 of 6.

In the case of `Nc1nc(=O)n(C2OC(CO)C(O)C2O)c2scnc12` (centres undefined), the survivor count (dose: 200.0 mg/kg/injection, schedule: Q01DX005 (ip), vehicle: saline) is recorded as 2 of 4.

With `CN(N=O)C(=O)N(C)C(=O)N(C)N=O`, the survivor count is 5 of 6 (dose: 75.0 mg/kg/injection, schedule: Q01DX Z (ip), vehicle: carboxymethylcellulose (CMC)); 5 of 6 under setting [3]; 0 of 6 under setting [4].

With `C1CCC2[N-]CC3CCCCC3[N-]CC3CCCCC3[N-]CC3CCCCC3[N-]CC2C1.[Cl][Fe]([Cl])([Cl])[Cl].[Fe+6]` (centres undefined), the survivor count runs as follows: (dose: 100.0 mg/kg/injection, schedule: Q04DX002 (ip), vehicle: Klucel (hydroxypropylcellulose) (HPC)) 1 of 3; (dose: 200.0 mg/kg/injection, schedule: Q04DX002 (ip), vehicle: Klucel (hydroxypropylcellulose) (HPC)) 0 of 3; (dose: 400.0 mg/kg/injection, schedule: Q04DX002 (ip), vehicle: Klucel (hydroxypropylcellulose) (HPC)) 0 of 3.

With `Clc1sc2ccccc2c1Cl`, the survivor count under setting [11] is 0 of 6.

Regarding `N#CSc1ccc(S(N)(=O)=O)cc1`, the survivor count by setting is: under setting [13], 3 of 6; under setting [5], 0 of 6; under setting [6], 1 of 6; under setting [7], 0 of 6.

On to `Nc1ncnc2cc(O)[nH]c12`, for which the survivor count is on record as 1 of 4 under setting [1] and 0 of 4 under setting [2].

Consider `O=S(=O)(c1cc(Cl)c(O)c(Cl)c1)c1cc(Cl)c(O)c(Cl)c1`, for which the survivor count by setting is: under setting [11], 0 of 6; under setting [12], 0 of 6.

Regarding `CCOC(=O)c1ccc(OC(=O)Nc2ccc(F)cc2)cc1`, the survivor count (dose: 200.0 mg/kg/injection, schedule: Q01DX009 (ip), vehicle: carboxymethylcellulose (CMC)) was 4 of 6.

`O=c1[nH][nH]c(=O)c2ccccc12`: the survivor count under setting [12] is on record as 6 of 6.

With `C1=NC(c2ccccc2)=CN(C2CCCCCCC2)C1(c1ccccc1)C1CCCCCCC1` (centres undefined), the survivor count (dose: 200.0 mg/kg/injection, schedule: Q04DX002 (ip), vehicle: saline) is recorded as 2 of 3.

Take `CC(C)(C)C(=O)OCn1cnc(=N)c2[nH]cnc21`: the survivor count under setting [7] is 2 of 6.

In the case of `OCCNc1ccccc1`, the survivor count under setting [10] is given as 1 of 6.

As to `CC(=O)Nc1ccc(S(=O)(=O)F)cc1C`, the survivor count under setting [12] is on record as 1 of 6.
